Drawing on PubChem BioAssay AID248 (DTP/NCI, 2004), this text covers survivor count and T/C for 24 compounds.

The list shows only some results of the screen, not a fair sample: it gathers tests that were run many times, whatever their T/C, doses with no T/C, and many T/C values between a quarter and a half above the control. Other doses and runs of a compound stand elsewhere. T/C: endpoint of the treated group in % of that of the vehicle group. Some doses have a count of surviving animals in place of a T/C: the source holds a T/C of zero for them, seemingly a mark for toxic or unscored doses. Some survivor counts are full or nearly so, which does not show that the dose was tolerated: survival well below the control is almost never listed, so the zero probably covers shortened survival too. Counts of survivors are from the toxicity check (mostly the fifth day) where no day follows; animals may have died later. Schedule codes are those of the source, read here as Q, the interval in days (D) or hours (H), X, the number of doses. For survival time, this PubChem deposit counts one and a half times the control or more as active, and values a quarter to a half above the control carry no call in these data; other NCI protocols may use other cut-offs. Some schedules carry Z or #; the key to these is not given. Some T/C values carry the count of animals alive at the toxicity check (mostly the fifth day); without a count, all were alive then.

The test relates to L1210 leukemia ip in BDF1 mice, survival T/C. Briefly: NCI In Vivo Anticancer Drug Screen. Data for tumor model L1210 Leukemia (intraperitoneal) in B6D2F1 (BDF1) mice. As to conditions: T/C endpoint: mean survival time, higher T/C = longer survival.
Where [1] appears, read: dose: 25.0 mg/kg/injection, schedule: Q04DX003 (ip), vehicle: saline.
[2] abbreviates: dose: 50.0 mg/kg/injection, schedule: Q04DX003 (ip), vehicle: saline.
The mark [3] stands for this setting: dose: 400.0 mg/kg/injection, schedule: Q04DX002 (ip), vehicle: saline with Tween-80.
Where [4] appears, read: dose: 6.25 mg/kg/injection, schedule: Q01DX009 (ip), vehicle: saline with Tween-80.
The mark [5] stands for this setting: dose: 50.0 mg/kg/injection, schedule: Q01DX009 (ip), vehicle: saline with Tween-80.
The mark [6] stands for this setting: dose: 200.0 mg/kg/injection, schedule: Q04DX002 (ip), vehicle: saline with Tween-80.
Where [7] appears, read: dose: 100.0 mg/kg/injection, schedule: Q01DX009 (ip), vehicle: saline with Tween-80.
[8] abbreviates: dose: 200.0 mg/kg/injection, schedule: Q01DX009 (ip), vehicle: saline with Tween-80.
Setting [9] is: dose: 400.0 mg/kg/injection, schedule: Q01DX009 (ip), vehicle: saline with Tween-80.
[10] abbreviates: dose: 400.0 mg/kg/injection, schedule: Q01DX009 (ip), vehicle: Klucel (hydroxypropylcellulose) (HPC).
Setting [11] is: dose: 400.0 mg/kg/injection, schedule: Q01DX001 (ip), vehicle: saline.
The mark [12] stands for this setting: dose: 400.0 mg/kg/injection, schedule: Q04DX003 (ip), vehicle: saline.
Where [13] appears, read: dose: 200.0 mg/kg/injection, schedule: Q01DX009 (ip), vehicle: saline.
Where [14] appears, read: dose: 200.0 mg/kg/injection, schedule: Q04DX003 (ip), vehicle: saline.
Where [15] appears, read: dose: 400.0 mg/kg/injection, schedule: Q01DX009 (ip), vehicle: saline.

For the compound `C=CCOCCN1CCN(CCCN2c3ccccc3Sc3ccc(C(F)(F)F)cc32)CC1`, the survivor count is, setting by setting: (dose: 4.37 mg/kg/injection, schedule: Q01DX009 (ip), vehicle: saline) 6 of 6; (dose: 8.75 mg/kg/injection, schedule: Q01DX009 (ip), vehicle: saline) 6 of 6; (dose: 17.5 mg/kg/injection, schedule: Q01DX009 (ip), vehicle: saline) 0 of 6; under setting [2], 1 of 6; (dose: 100.0 mg/kg/injection, schedule: Q04DX003 (ip), vehicle: saline) 5 of 6. For the same compound, the T/C is, setting by setting: under setting [1], 125 % of control; (dose: 35.0 mg/kg/injection, schedule: Q01DX003 (ip), vehicle: saline) 129 % of control; (dose: 35.0 mg/kg/injection, schedule: Q04DX003 (ip), vehicle: saline) 148 % of control [5 of 6 alive].
Take `Cc1ccc2[nH]c(=S)[nH]c2c1`: under “dose: 400.0 mg/kg/injection, schedule: Q01DX001 (ip), vehicle: saline with Tween-80”, the survivor count is 0 of 3.
`Clc1nc(N2CC2)nc(N2CC2)n1`: the survivor count is reported as 2 of 6 (dose: 30.0 mg/kg/injection, schedule: Q01DX001 (ip), vehicle: carboxymethylcellulose (CMC)); 0 of 6 (dose: 60.0 mg/kg/injection, schedule: Q01DX001 (ip), vehicle: carboxymethylcellulose (CMC)); 1 of 6 (dose: 75.0 mg/kg/injection, schedule: Q01DX001 (ip), vehicle: carboxymethylcellulose (CMC)); 0 of 6 (dose: 150.0 mg/kg/injection, schedule: Q01DX001 (ip), vehicle: carboxymethylcellulose (CMC)); 0 of 6 (dose: 300.0 mg/kg/injection, schedule: Q01DX001 (ip), vehicle: carboxymethylcellulose (CMC)).
For `CN(CCNC(=O)c1ccccc1C(=O)O)c1ccccc1`, under setting [3], the survivor count is listed as 3 of 3.
Regarding `N=C(N)c1ccc(Oc2ccc(-c3cc4ccc(C(=N)N)cc4[nH]3)cc2)cc1`, the T/C is 125 % of control under setting [4] and 137 % of control under setting [1]. Moreover, the survivor count by setting is: under setting [1], 1 of 4; under setting [2], 2 of 6; (dose: 100.0 mg/kg/injection, schedule: Q04DX003 (ip), vehicle: saline with Tween-80) 0 of 4; (dose: 200.0 mg/kg/injection, schedule: Q04DX003 (ip), vehicle: saline with Tween-80) 0 of 4; (dose: 400.0 mg/kg/injection, schedule: Q04DX003 (ip), vehicle: saline with Tween-80) 1 of 4.
Regarding `BrCC1OCCCO1`, the T/C under setting [5] is 130 % of control. Further, the survivor count is, setting by setting: under setting [6], 0 of 3; under setting [3], 0 of 3.
`NC(=O)CNC(=O)CNC(=O)CNC(=O)OCc1ccccc1`: the survivor count is on record as 5 of 6 under setting [7], 1 of 6 under setting [8] and 0 of 6 under setting [9].
For the compound `O=Cc1ccc(OC(=O)Nc2ccccc2)cc1`, the survivor count under setting [9] was 3 of 6.
On to `Cc1cc2nc(NC(=O)C3CC3)sc2cc1C`, for which, under setting [10], the survivor count was 6 of 6.
As for `COc1c2c(cc3c1C1(O)Cc4ccc5c(c4C[N+]1(C)CC3)OCO5)OCO2` (stereo unspecified), under setting [11], the survivor count is listed as 2 of 4.
In the case of `O=C1CSC2=NCCN12`, the survivor count under setting [12] is recorded as 0 of 6.
For `C=C(Br)CNC(=O)Nc1ccccn1`, under setting [10], the survivor count is 0 of 6.
`CC[CH2][Sn]([CH2]CC)([CH2]CCC#N)[O]C(C)=O`: the survivor count is given as 0 of 3 under setting [4]; 0 of 3 (dose: 12.5 mg/kg/injection, schedule: Q01DX009 (ip), vehicle: saline with Tween-80); 0 of 3 (dose: 25.0 mg/kg/injection, schedule: Q01DX009 (ip), vehicle: saline with Tween-80); 1 of 3 under setting [5]; 0 of 3 under setting [7]; 0 of 3 under setting [8].
Take `CS(=O)(=O)OCCN(CCOS(C)(=O)=O)c1ccc(/C=N/Nc2ncnc3nc[nH]c23)cc1`: the T/C (dose: 22.0 mg/kg/injection, schedule: Q01DX009 (ip), vehicle: other) is 136 % of control; the T/C (dose: 25.0 mg/kg/injection, schedule: Q01DX009 (ip), vehicle: saline) is 130 % of control; the T/C (dose: 33.0 mg/kg/injection, schedule: Q01DX009 (ip), vehicle: other) was 130 % of control; the T/C (dose: 50.0 mg/kg/injection, schedule: Q01DX009 (ip), vehicle: other) was 138 % of control; the T/C (dose: 50.0 mg/kg/injection, schedule: Q01DX009 (ip), vehicle: saline) is 136 % of control; the T/C (dose: 75.0 mg/kg/injection, schedule: Q01DX009 (ip), vehicle: other) is 144 % of control. In addition, the T/C runs as follows: (dose: 100.0 mg/kg/injection, schedule: Q01DX001 (ip), vehicle: other) 126 % of control; (dose: 200.0 mg/kg/injection, schedule: Q01DX001 (ip), vehicle: other) 132 % of control; (dose: 400.0 mg/kg/injection, schedule: Q01DX001 (ip), vehicle: other) 126 % of control. The survivor count under setting [13] is reported as 0 of 6.
Regarding `O=C(O)c1c(Cl)c(Cl)c(Cl)c(Cl)c1C(=O)Nc1cccc(C(F)(F)F)c1`, the survivor count under setting [10] was 3 of 6.
Consider `CN=C(N)c1ccc(N=C(N)c2ccc(N=C(N)c3ccc(NC(=O)c4ccc(C(=O)Nc5ccc(C(N)=Nc6ccc(C(N)=Nc7ccc(C(N)=NC)cc7)cc6)cc5)cc4)cc3)cc2)cc1`, for which the T/C (dose: 25.0 mg/kg/injection, schedule: Q01DX Z (ip), vehicle: water) was 125 % of control.
Regarding `OB(O)CI`, the survivor count (dose: 40.0 mg/kg/injection, schedule: Q01DX001 (ip), vehicle: saline) was 0 of 4; the survivor count (dose: 50.0 mg/kg/injection, schedule: Q01DX001 (ip), vehicle: saline) is on record as 0 of 4; the survivor count (dose: 80.0 mg/kg/injection, schedule: Q01DX001 (ip), vehicle: saline) is recorded as 0 of 4; the survivor count (dose: 100.0 mg/kg/injection, schedule: Q01DX001 (ip), vehicle: saline) is on record as 0 of 4; the survivor count (dose: 200.0 mg/kg/injection, schedule: Q01DX001 (ip), vehicle: saline) is on record as 0 of 4; the survivor count under setting [11] is 0 of 4.
Take `C1=CCOCOC1`: the survivor count is 0 of 6 under setting [8] and 0 of 6 under setting [9].
Take `N#Cc1ccc(S(N)(=O)=O)cc1`: the survivor count (dose: 200.0 mg/kg/injection, schedule: Q01DX009 (ip), vehicle: acetone) is reported as 6 of 6 and the survivor count (dose: 400.0 mg/kg/injection, schedule: Q01DX009 (ip), vehicle: acetone) was 2 of 6.
On to `CC(=O)C(C#N)c1c(C)cc(C)cc1C` (stereo unspecified), for which the survivor count (dose: 300.0 mg/kg/injection, schedule: Q01DX001 (ip), vehicle: saline) is 2 of 6.
Turning to `O=C1Cc2cccc(=O)c(O)c2C(=O)O1`, the survivor count runs as follows: (dose: 100.0 mg/kg/injection, schedule: Q01DX009 (ip), vehicle: saline) 6 of 6; under setting [13], 6 of 6; under setting [14], 2 of 6; under setting [15], 6 of 6; under setting [12], 2 of 6.
As for `O=C(Nc1cccc(Cl)c1)Oc1c(Cl)cc(S(=O)(=O)F)cc1Cl`, the survivor count by setting is: under setting [6], 0 of 3; under setting [3], 0 of 3.
Consider `CCC(=O)OC1(c2ccccc2)CCN(C)C1C` (stereo unspecified), for which the survivor count is listed as 1 of 6 under setting [13], 1 of 4 under setting [14], 0 of 6 under setting [15] and 0 of 4 under setting [12].
Consider `O=C(C[n+]1ccccc1)N/N=C/c1ccccc1O`, for which the survivor count reads like this: under setting [5], 3 of 3; under setting [7], 3 of 3; under setting [8], 3 of 3.
